The text below walks through data of PubChem BioAssay AID2685 (National Center for Advancing Translational Sciences (NCATS), 2010).

The structures appear in SMILES notation. The list shows a part of the results. Further columns of the screen follow, without active or inactive calls. Compounds called inactive in the main read-out are mostly missing here. Words in brackets tell the shape of the fitted curve; partial curves, single points and poor fits give uncertain potencies.

A short description of this experiment: qHTS Assay for Lipid Storage Modulators in Drosophila S3 Cells.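 For cell number change: cells counted by Cell Tracker Red CMTPX staining in the red channel.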 As to conditions: BODIPY lipid droplet fluorescence, 18-24 h; for cell number change: measured here: cell count max response, cells fed with added oleic acid. An outline of the steps: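 Laser-scanning cytometry quantifies lipid droplet accumulation (500–530 nm total intensity; droplet/cell object ratio) in oleic acid-fed (400 uM added) Drosophila S3 cells treated with a concentration series. 20 uM Triacsin C defined 100% inhibition.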

Setting [1] is: measured here: lipid fluorescence (Fed channel) AC50, cells fed with added oleic acid.
Setting [2] is: measured here: cell number channel AC50, cells fed with added oleic acid.

Regarding `CCOc1ccc(NC(=O)CN(c2ccc(C)cc2)S(=O)(=O)c2c(C)nn(C)c2C)cc1`, the cell number change is -17.2%.
In the case of `Cc1cc(Cn2nc(C(=O)NCc3cccc(Br)c3)cc2-c2ccccc2)on1`, the AC50 (commonly the midpoint of the concentration-response curve, whichever way the signal moves) under setting [1] was 1.64 µM [falling, partial curve].
For the compound `CNc1ccccc1C(C)(C)c1cc(-c2ccc(F)cc2)no1`, the cell number change is -19.8%. In addition, the AC50 under setting [1] is 29.1 µM [falling, single point].
For the compound `O=C(CCCC(=O)c1ccccc1)Nc1ccc(O)cc1`, the cell number change was -7.94%. Under setting [1], the AC50 was 6.51 µM [falling, single point].
Take `COc1ccc(-c2cc3ccccc3[nH]2)cc1`: the cell number change is -20%. Besides, the AC50 under setting [1] is 0.82 µM [falling, full curve].
Consider `CC(NC(=O)COc1ccccc1-c1ccccc1)c1ccccc1` (stereo unspecified), for which the cell number change came out at 8.31%.
On to `COc1cccc(OC)c1C(=O)NC(=O)NNc1cc(C(F)(F)F)cc(C)n1`, for which the cell number change amounted to 10.3%. Also, under setting [1], the concentration at half-maximal activity (AC50) is 6.51 µM [rising, single point].
Take `Cc1ccc(C)c(S(=O)(=O)NCC(=O)N2CCCC2)c1`: the cell number change is -3.17%. Also, the AC50 under setting [1] is 29.1 µM [rising, single point].
For `COc1cccc(CNC(=O)CN2C(=O)CC(c3ccccc3)=Nc3ccccc32)c1`, the cell number change was -69.3%. Further, the AC50 under setting [2] was 1.3 µM [falling, partial curve]. For the same compound, the half-maximal activity concentration (AC50) under setting [1] is 0.92 µM [falling, partial curve].
For `NS(=O)(=O)c1cccc(NC(=O)CCCC2CCCCC2)c1`, the cell number change came out at 10.1%.
For the compound `Cc1ccc(N(CC(=O)N2CCCCC2)S(=O)(=O)c2ccc(C)cc2)cc1`, the cell number change was -11.7%. Also, under setting [1], the AC50 is 0.00461 µM [falling, full curve, poor fit].
Take `Cc1ccc(NC(=O)CSc2nn(-c3ccc(Cl)cc3)c(=S)s2)cc1S(=O)(=O)N(C)C`: the cell number change was 5.45%.
`CC1(C)OCC(C2CC(c3ccccc3)NS(=O)(=O)O2)O1` (stereo unspecified): the cell number change is 7.77%.
The same measure, in the same setting: as for `COc1ccc(OC)c(S(=O)(=O)NCc2cccnc2)c1`, the figure is 31.5%.
In the case of `CC(=O)Nc1ccc(OCC(O)Cn2nc(C)c(C(C)=O)c2C)cc1` (stereo unspecified), the AC50 under setting [1] was 0.13 µM [falling, partial curve, poor fit].
Take `Cc1ccc(-c2nc(NC(=O)c3nn(C)cc3[N+](=O)[O-])sc2C)cc1C`: the cell number change came out at 36.7%. Under setting [2], the AC50 was 29.1 µM [rising, single point]. Besides, the AC50 under setting [1] is 29.1 µM [rising, single point].
For `O=C(CC(CC(=O)c1ccccc1)c1ccccc1)c1ccccc1`, the cell number change was found to be 13.5%. For the same compound, the AC50 under setting [2] is 0.231 µM [rising, full curve, poor fit]. In addition, under setting [1], the AC50 was 16.4 µM [rising, single point].
For the compound `C=CCn1c(SCc2nc3ccccc3[nH]2)nnc1-c1ccc(OC)cc1`, the cell number change was -16.2%. For the same compound, under setting [1], the AC50 was 23.1 µM [falling, single point].
As for `Cc1ccc(S(=O)(=O)Nc2ccccc2F)cc1C(=O)NNC(=O)c1csc(N2CCOCC2)n1`, the cell number change came to 125%. Besides, under setting [2], the AC50 was 6.51 µM [rising, full curve]. In addition, the AC50 under setting [1] was 3.66 µM [rising, single point].
Take `Cc1nnc(NC(=O)C23CC4CC(CC(C4)C2)C3)s1`: the cell number change stood at 6.3%. Further, the AC50 under setting [1] is 6.51 µM [rising, single point].
In the case of `CCOC(=O)c1ccc(NC(=O)C(C)NS(=O)(=O)c2ccc(OC)cc2)cc1` (stereo unspecified), the cell number change is -2.5%. Further, the concentration at half-maximal activity (AC50) under setting [1] is 29.1 µM [rising, single point].
Take `O=C(CN1CCOCC1)Nc1nc2cc([N+](=O)[O-])ccc2s1`: the cell number change was -20.8%. The AC50 under setting [1] is 13 µM [rising, single point].
For the compound `COc1ccc(NC(=S)N2CCN(c3ncccn3)CC2)c(OC)c1`, the cell number change was 7.19%.
For `Cc1nnc(SCc2ccc(F)cc2)n1NC/C=C/c1ccccc1`, the cell number change is -27.2%. For the same compound, under setting [1], the AC50 was 32.6 µM [falling, single point].
Consider `O=C(CN1C(=O)CSC1=O)c1ccccc1`, for which the cell number change was 8.08%.
As to `CCn1c(-c2csc(-c3ccc(Cl)cc3)n2)n[nH]c1=S`, the cell number change was -2.81%. Moreover, the concentration at half-maximal activity (AC50) under setting [2] was 0.82 µM [rising, partial curve]. The AC50 under setting [1] was 0.517 µM [rising, full curve].
With `COc1ccc(CCn2c(N3CCN(Cc4ccccc4)CC3)nc3c2c(=O)[nH]c(=O)n3C)cc1`, the cell number change was -22%. For the same compound, the AC50 under setting [1] was 0.58 µM [rising, partial curve, poor fit].
For the compound `C/C(=N\NC(=O)c1ccn(C)n1)c1cccc(NC(=O)c2ccncc2)c1`, the cell number change was 11.4%. Further, the AC50 under setting [1] was 8.2 µM [rising, partial curve, poor fit].
As for `O=C(CNC(=O)c1ccc(Br)o1)NCc1ccc(F)cc1`, the cell number change was 4.99%. The AC50 under setting [1] is 0.731 µM [falling, single point].
Regarding `O=C(NCC1CCCN1S(=O)(=O)c1cccs1)c1ccc(F)c(F)c1` (stereo unspecified), the cell number change was determined as 33.7%. In addition, under setting [2], the AC50 is 16.4 µM [rising, single point].
In the case of `CCSc1nc(=O)n(-c2ccccc2)c(C)c1C(C)=O`, the cell number change is -23.3%. The AC50 under setting [2] is 0.206 µM [falling, full curve, poor fit]. Also, the AC50 under setting [1] is 0.82 µM [falling, full curve, poor fit].
Turning to `O=C(NC(=S)Nc1ccc(S(=O)(=O)Nc2nccs2)cc1)c1cccc(F)c1`, the cell number change is 2.25%. Further, the AC50 under setting [1] was 29.1 µM [rising, single point].
Turning to `CCOCCCNc1nc2ccccc2[nH]1`, the cell number change was -13.1%. Moreover, the AC50 under setting [2] is 0.146 µM [falling, full curve, poor fit]. The AC50 under setting [1] is 1.16 µM [falling, full curve].
For the compound `Cc1cc2cc3c(cc2nc1SCC(=O)Nc1nc(C)c(C)s1)OCO3`, the AC50 under setting [1] was 0.13 µM [rising, full curve, poor fit].
In the case of `COc1ccc(S(=O)(=O)N2CCCCC2)cc1NC(=O)Cc1ccsc1`, the cell number change was -7.23%.
`COc1ccc(S(=O)(=O)N2CCOC2CNC(=O)C(=O)NCCc2ccccc2OC)cc1C` (stereo unspecified): the cell number change was 11.2%. Besides, under setting [1], the AC50 was 0.58 µM [rising, single point].
With `COCc1cc(N2CCCC2)nc(-c2ccccc2)n1`, the AC50 under setting [1] is 0.517 µM [rising, single point].
As for `CCN(Cc1nc2ccccc2c(=O)[nH]1)C(=O)c1cccc(S(=O)(=O)N2CCc3ccccc32)c1`, the cell number change amounted to 44.4%. For the same compound, under setting [2], the AC50 was 10.3 µM [rising, partial curve, poor fit].
As to `COc1ccc(CNS(=O)(=O)c2cc(-c3cc(C)no3)ccc2OC)cc1OC`, the cell number change was -11.2%. Besides, the AC50 under setting [1] is 4.11 µM [falling, single point].
Regarding `C/C(Cc1ccccc1)=N\NC(=O)c1ccccn1`, the cell number change came to 20%.
In the case of `CCOC(=O)c1nn(-c2ccc(F)cc2)c(=O)cc1OCC(=O)Nc1ccc(OCC)cc1`, the cell number change is -99.7%. Besides, under setting [2], the AC50 was 32.6 µM [falling, partial curve]. For the same compound, the AC50 under setting [1] was 16.4 µM [rising, partial curve].
